The values below come from US20100297194A1, “FORMULATION FOR ORAL ADMINISTRATION OF APOPTOSIS PROMOTER” (priority 2009, published 2010).

Structures can show the parent of a compound that is named as a salt. This continues a long series; more values of the same kind are listed elsewhere.

The nature of series [1]: drug solubility in ternary excipient systems (Example 2). Type of series: physicochemical. Also on record: key: ✓: vehicle miscible, or drug fully dissolved in vehicle; X: vehicle immiscible or miscible but turbid, or residual solids present (due to undissolved drug or precipitation). To be noted: 10% salt, 20% free base. The text has this:
(§1) Solvents evaluated included Labrafil M 1944 CS™, Imwitor 742™ oleic acid, Capmul PG-8™, Capmul PG-12™, Lauroglycol 90™ and Phosal 53 MCT™. Surfactants evaluated included Tween™ 80, Cremophor RH40™, Gelucire 44/14™ and Labrasol™.

Assay in series [2]: as above
Format: physicochemical. Also on record: key: ✓: vehicle miscible, or drug fully dissolved in vehicle. To be noted: 10% salt, 20% free base.
From the text: as §1

With `CC1(C)CCC(c2ccc(Cl)cc2)=C(CN2CCN(c3ccc(C(=O)NS(=O)(=O)c4ccc(N[C@H](CCN5CCOCC5)CSc5ccccc5)c(S(=O)(=O)C(F)(F)F)c4)cc3)CC2)C1` [ABT-263, N-(4-(4-((2-(4-chlorophenyl)-5,5-dimethyl-1-cyclohex-1-en-1-yl)methyl)piperazin-1-yl)benzoyl)-4-(((1R)-3-(morpholin-4-yl)-1-((phenylsulfanyl)methyl)propyl)amino)-3-((trffluoromethyl)sulfonyl)benzene-sulfonamide], the ABT-263 solubility result was “X” in series [1] (ILC (Imwitor 742/Labrafil M 1944 CS/Cremophor RH40) 40:40:20 by weight, listed as ABT-263 free base); “X” in series [1] (ILC (Imwitor 742/Labrafil M 1944 CS/Cremophor RH40) 50:30:20 by weight, listed as ABT-263 free base); “X” in series [1] (LIT (Labrafil M 1944 CS/Imwitor 742/Tween 80) 30:45:25 by weight, listed as ABT-263 free base); “X” in series [1] (LIT (Labrafil M 1944 CS/Imwitor 742/Tween 80) 40:35:25 by weight, listed as ABT-263 free base).

On to `CC1(C)CCC(c2ccc(Cl)cc2)=C(CN2CCN(c3ccc(C(=O)NS(=O)(=O)c4ccc(N[C@H](CCN5CCOCC5)CSc5ccccc5)c(S(=O)(=O)C(F)(F)F)c4)cc3)CC2)C1` [ABT-263 bis-HCl], for which the ABT-263 solubility entry is “✓” in series [2] (ILC (Imwitor 742/Labrafil M 1944 CS/Cremophor RH40) 40:40:20 by weight, listed as ABT-263 bis-HCl salt); “✓” in series [2] (LIT (Labrafil M 1944 CS/Imwitor 742/Tween 80) 30:45:25 by weight, listed as ABT-263 bis-HCl salt); “✓” in series [2] (LIT (Labrafil M 1944 CS/Imwitor 742/Tween 80) 40:35:25 by weight, listed as ABT-263 bis-HCl salt); “✓” in series [2] (LLC (Lauroglycol 90/Labrafil M 1944 CS/Cremophor RH40) 45:30:25 by weight); “✓” in series [2] (LOC (Labrafil M 1944 CS/oleic acid/Cremophor RH40) 30:60:10 by weight); “✓” in series [2] (LOC (Labrafil M 1944 CS/oleic acid/Cremophor RH40) 40:50:10 by weight). The ABT-263 solubility result in series [1] (C8LC (Capmul PG-8/Labrafil M 1944 CS/Cremophor RH40) 40:40:20 by weight), in series [1] (C8LC (Capmul PG-8/Labrafil M 1944 CS/Cremophor RH40) 50:30:20 by weight), in series [1] (C8LC (Capmul PG-8/Labrafil M 1944 CS/Cremophor RH40) 50:40:10 by weight) and in series [1] (C8LC (Capmul PG-8/Labrafil M 1944 CS/Cremophor RH40) 60:30:10 by weight) was “X” each time.
